Laboratory results reported in patent US20200306333A1, “COMPOSITION FOR PREVENTING OR TREATING MUSCLE ATROPHY COMPRISING LYCII RADICIS CORTEX” (Industry-University Cooperation Foundation Hanyang …, priority 2019, published 2020).
For at least one compound, name, drawing or mass did not settle the structure.

Experiments:
Format in all cases: cell-based, mouse
atrogin-1/MAFbx = assay: Western blotting of atrogin-1/MAFbx in C2C12 myotubes
Text: (§1) Dexamethasone induces muscle atrophy by inhibiting muscle synthesis and inducing protein degradation. The effect of preventing and improving muscle atrophy of the lycii radicis cortex extract was investigated by inducing muscle atrophy by treating the differentiation-induced C2C12 cells of Example 2-1 with dexamethasone and then treating the muscle atrophy-induced cells with the lycii radicis cortex extract. Detailed experimental conditions are as follows.
(§2) (1) Control: The differentiated C2C12 cells were treated only with DMEM/high glucose supplemented with 1% penicillin for 48 hours.
(§3) (2) Negative control: The C2C12 cells were treated with DMEM/high glucose supplemented with 1% penicillin and 1 μM dexamethasone for 48 hours.
(§4) (3) Control+lycii radicis cortex extract: The cells were treated with 30 μg/mL of the lycii radicis cortex extract for 48 hours under the same condition as the control of (1).
(§5) (4) Negative control+lycii radicis cortex extract: The cells were treated with 30 μg/mL of the lycii radicis cortex extract for 48 hours under the same condition as the negative control of (2). […]

MuRF-1 = assay: Western blotting of MuRF-1 in C2C12 myotubes
Text: as §1, §2, §3, §4, §5

C2C12 myotubes = assay: Diameter (thickness) of C2C12 myotubes, dexamethasone-induced muscle atrophy; settings: dexamethasone 1 μM; extract 30 μg/mL; 48 hours
Protocol: C2C12 mouse myoblasts acquired from the Korean Collection for Type Cultures of the Korea Research Institute of Bioscience and Biotechnology were induced to divide for a total of 6 times (3 times×2 days). After the division was completed sufficiently, the C2C12 cells were seeded onto a 12-well plate and then divided for 2 days. As a division medium, HyClone™ DMEM/high glucose supplemented with 10% FBS (fetal bovine serum) and 1% penicillin was used.
When each well of the 12-well plate reached 90% confluency, the cells were treated with a differentiation medium (HyClone™ DMEM/high glucose supplemented with 2% HS (horse serum) and 1% penicillin). The differentiation medium was replaced every 2 days, and the treatment was performed for 6 days. Then, the differentiation-induced C2C12 myotubes were treated with HyClone™ supplemented with 1% penicillin for 24 hours and then subjected to the following experiment.
Dexamethasone induces muscle atrophy by inhibiting muscle synthesis and inducing protein degradation. […]
After treating the control groups and test groups for 48 hours in Example 2-2, the cells were imaged using the automated cell imaging system JuLi™ Stage and the thickness of the imaged cells was measured using the cell processing program Image J, with 50 cells per group.

SMILES: C[C@@H]1C[C@H]2[C@@H]3CCC4=CC(=O)C=C[C@]4(C)[C@@]3(F)[C@@H](O)C[C@]2(C)[C@@]1(O)C(=O)CO [dexamethasone]
- effect on atrogin-1/MAFbx in C2C12 myotubes (in words) (atrogin-1/MAFbx): increases
- effect on MuRF-1 in C2C12 myotubes (in words) (MuRF-1): increases
- effect on thickness of C2C12 myotubes (in words) (C2C12 myotubes): decreased thickness
